The other results are listed elsewhere or left out.
Assays:
Assay in all cases: glycan array binding signal (z-score within array); higher = stronger binding
Settings in all cases: glycan notation: IUPAC condensed, linker removed
[1] = target: Gal(b1-4)GlcNAc(b1-2)[Gal(b1-4)GlcNAc(b1-4)]Man(a1-3)[Gal(b1-4)GlcNAc(b1-2)Man(a1-6)]Man(b1-4)GlcNAc(b1-4)GlcNAc
How it was run: (§1)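 Glycan array data were curated from 3228 arrays in the Consortium for Functional Glycomics database and kept only where the protein sequence was available. Glycan names were converted to IUPAC-condensed notation, and columns mapping to the same glycan were averaged. The binding signal is a within-array Z-score, averaged across arrays of the same protein sequence at different concentrations or buffers and across linkers. Negative Z-scores can be read as non-binding.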

[2] = target: Gal(b1-4)GlcNAc(b1-3)Gal(b1-3)GlcNAc
How it was run: as §1

[3] = target: Gal(b1-4)GlcNAc(b1-3)Gal(b1-4)Glc
How it was run: as §1

[4] = target: Gal(b1-4)GlcNAc(b1-3)Gal(b1-4)GlcNAc
How it was run: as §1

[5] = target: Gal(b1-4)GlcNAc(b1-3)Gal(b1-4)GlcNAc(b1-3)Gal(b1-4)GlcNAc
How it was run: as §1

[6] = target: Gal(b1-4)GlcNAc(b1-3)Gal(b1-4)[Fuc(a1-3)]GlcNAc(b1-3)Gal(b1-4)[Fuc(a1-3)]GlcNAc
How it was run: as §1

[7] = target: Gal(b1-4)GlcNAc(b1-3)GalNAc
How it was run: as §1

[8] = target: Gal(b1-4)GlcNAc(b1-3)[Gal(b1-4)GlcNAc(b1-6)]Gal(b1-4)GlcNAc
How it was run: as §1

[9] = target: Gal(b1-4)GlcNAc(b1-3)[GlcNAc(b1-6)]Gal(b1-4)GlcNAc
How it was run: as §1

[10] = target: Gal(b1-4)GlcNAc(b1-6)Gal(b1-4)GlcNAc
How it was run: as §1

[11] = target: Gal(b1-4)GlcNAc(b1-6)Gal(b1-4)GlcNAc(b1-6)GalNAc
How it was run: as §1

[12] = target: Gal(b1-4)GlcNAc(b1-6)GalNAc
How it was run: as §1

[13] = target: Gal(b1-4)GlcNAc(b1-6)[Gal(b1-3)]GalNAc
How it was run: as §1

[14] = target: Gal3S(b1-3)GalNAc
How it was run: as §1

[15] = target: Gal3S(b1-3)GlcNAc
How it was run: as §1

[16] = target: Gal3S(b1-3)[Fuc(a1-4)]GlcNAc
How it was run: as §1

[17] = target: Gal3S(b1-4)Glc
How it was run: as §1

[18] = target: Gal3S(b1-4)Glc6S
How it was run: as §1

[19] = target: Gal3S(b1-4)GlcNAc
How it was run: as §1

[20] = target: Gal3S(b1-4)GlcNAc6S
How it was run: as §1

[21] = target: Gal3S(b1-4)[Fuc(a1-3)]Glc
How it was run: as §1

[22] = target: Gal3S4S(b1-4)GlcNAc
How it was run: as §1

[23] = target: Gal3S6S(b1-4)GlcNAc
How it was run: as §1

[24] = target: Gal3S6S(b1-4)GlcNAc6S
How it was run: as §1

[25] = target: Gal4S(b1-4)GlcNAc
How it was run: as §1

[26] = target: Gal4S6S(b1-4)GlcNAc
How it was run: as §1

[27] = target: Gal6S(b1-4)Glc
How it was run: as §1

[28] = target: Gal6S(b1-4)Glc6S
How it was run: as §1

[29] = target: Gal6S(b1-4)GlcNAc
How it was run: as §1

[30] = target: Gal6S(b1-4)GlcNAc6S
How it was run: as §1

[31] = target: GalNAc(a1-3)Gal
How it was run: as §1

[32] = target: GalNAc(a1-3)GalNAc
How it was run: as §1

[33] = target: GalNAc(b1-3)Gal
How it was run: as §1

[34] = target: GalNAc(b1-3)Gal(a1-4)Gal(b1-4)GlcNAc
How it was run: as §1

[35] = target: GalNAc(b1-3)Gal(a1-4)Gal(b1-4)GlcNAc(b1-3)Gal(b1-4)Glc
How it was run: as §1

[36] = target: GalNAc(b1-3)GalNAc
How it was run: as §1

[37] = target: GalNAc(b1-4)GlcNAc
How it was run: as §1

[38] = target: GalNAc(b1-4)GlcNAc(b1-2)Man(a1-3)[GalNAc(b1-4)GlcNAc(b1-2)Man(a1-6)]Man(b1-4)GlcNAc(b1-4)GlcNAc
How it was run: as §1

B1: Spy 2007 (Streptococcus pyogenes), Q99XV3 (protein)
chain: MKKGFFLMAMVVSLVMIAGCDKSANPKQPTQGMSVVTSFYPMYAMTKEVSGDLNDVRMIQSGAGIHSFEPSVNDVAAIYDADLFVYHSHTLEAWARDLDPNLKKSKVDVFEASKPLTLDRVKGLEDMEVTQGIDPATLYDPHTWTDPVLAGEEAVNIAKELGRLDPKHKDSYTKNAKAFKKEAEQLTEEYTQKFKKVRSKTFVTQHTAFSYLAKRFGLKQLGISGISPEQEPSPRQLKEIQDFVKEYNVKTIFAEDNVNPKIAHAIAKSTGAKVKTLSPLEAAPSGNKTYLENLRANLEVLYQQLK
Q: For B1, which “glycan array binding signal (z-score)” value [1] is on record?
A: The value was -0.702.

Q: And the “glycan array binding signal (z-score)” value [2]?
A: The value was 0.183.

Q: What about the “glycan array binding signal (z-score)” value [3] of the same binder?
A: Its value is 0.349.

Q: What about the “glycan array binding signal (z-score)” value [4] of the same binder?
A: Its value is 1.27.

Q: And the “glycan array binding signal (z-score)” value [5]?
A: Its value is 1.34.

Q: And the “glycan array binding signal (z-score)” value [6]?
A: Its value is -0.198.

Q: What about the “glycan array binding signal (z-score)” value [7] of the same binder?
A: The value was -0.377.

Q: And the “glycan array binding signal (z-score)” value [8]?
A: Its value is -0.556.

Q: What about the “glycan array binding signal (z-score)” value [9] of the same binder?
A: Its value is 0.467.

Q: What about the “glycan array binding signal (z-score)” value [10] of the same binder?
A: Its value is 0.892.

Q: And the “glycan array binding signal (z-score)” value [11]?
A: The value was -0.368.

Q: What about the “glycan array binding signal (z-score)” value [12] of the same binder?
A: Its value is 0.164.

Q: What about the “glycan array binding signal (z-score)” value [13] of the same binder?
A: Its value is -0.38.

Q: And the “glycan array binding signal (z-score)” value [14]?
A: Its value is 0.145.

Q: What about the “glycan array binding signal (z-score)” value [15] of the same binder?
A: Its value is 1.92.

Q: And the “glycan array binding signal (z-score)” value [16]?
A: The value was 3.35.

Q: And the “glycan array binding signal (z-score)” value [17]?
A: The value was -0.543.

Q: And the “glycan array binding signal (z-score)” value [18]?
A: Its value is 0.48.

Q: What about the “glycan array binding signal (z-score)” value [19] of the same binder?
A: The value was 0.615.

Q: And the “glycan array binding signal (z-score)” value [20]?
A: Its value is 2.47.

Q: What about the “glycan array binding signal (z-score)” value [21] of the same binder?
A: The value was 0.789.

Q: And the “glycan array binding signal (z-score)” value [22]?
A: The value was 0.546.

Q: What about the “glycan array binding signal (z-score)” value [23] of the same binder?
A: Its value is 0.342.

Q: What about the “glycan array binding signal (z-score)” value [24] of the same binder?
A: The value was 3.

Q: And the “glycan array binding signal (z-score)” value [25]?
A: Its value is 0.369.

Q: What about the “glycan array binding signal (z-score)” value [26] of the same binder?
A: Its value is 0.697.

Q: And the “glycan array binding signal (z-score)” value [27]?
A: The value was 0.611.

Q: And the “glycan array binding signal (z-score)” value [28]?
A: Its value is 2.23.

Q: And the “glycan array binding signal (z-score)” value [29]?
A: Its value is 0.573.

Q: And the “glycan array binding signal (z-score)” value [30]?
A: The value was 5.95.

Q: What about the “glycan array binding signal (z-score)” value [31] of the same binder?
A: The value was 0.585.

Q: What about the “glycan array binding signal (z-score)” value [32] of the same binder?
A: Its value is -0.046.

Q: And the “glycan array binding signal (z-score)” value [33]?
A: Its value is 1.03.

Q: What about the “glycan array binding signal (z-score)” value [34] of the same binder?
A: Its value is 0.96.

Q: And the “glycan array binding signal (z-score)” value [35]?
A: The value was -0.522.

Q: What about the “glycan array binding signal (z-score)” value [36] of the same binder?
A: Its value is 0.965.

Q: What about the “glycan array binding signal (z-score)” value [37] of the same binder?
A: The value was -0.285.

Q: What about the “glycan array binding signal (z-score)” value [38] of the same binder?
A: Its value is 3.5.

— the supplement of paper PMC8728848
